For at least one entry, the source does not settle the construct or the ends of the probe. For some assays here: No signal at the amounts used counts as a negative. For some assays here: At least one verdict rests on a figure or table, not on a statement of the authors.
How the values were obtained:
CSB = CSB (UniProt Q03468); assay: EMSA; details: CSB alone, complexes resolve as smears; 30 mM HEPES pH 7.9, 60 mM NaCl, 6% glycerol, 6 mM MgCl2, 100 uM ZnSO4, 0.02% NP40, 30 C 10 min; 1 nM DNA; 5% native PAGE, 0.5x TBE; recombinant protein; protein details: N-terminal Flag; label: 32P (body label, PCR with 32P-dATP)
MBP = assay: EMSA; details: 100 uM ZnSO4, 6 mM Mg2+; 30 mM HEPES pH 7.9, 60 mM NaCl, 6% glycerol, 6 mM MgCl2, 100 uM ZnSO4, 0.02% NP40, 30 C 10 min; 1 nM DNA; 5% native PAGE, 0.5x TBE; recombinant protein; label: 32P (body label, PCR with 32P-dATP)

Sequences of proteins named here, by UniProt entry; tags and fusion partners are left off. A change or cut given only in a name is not applied to a line headed by its entry.
UniProt Q03468: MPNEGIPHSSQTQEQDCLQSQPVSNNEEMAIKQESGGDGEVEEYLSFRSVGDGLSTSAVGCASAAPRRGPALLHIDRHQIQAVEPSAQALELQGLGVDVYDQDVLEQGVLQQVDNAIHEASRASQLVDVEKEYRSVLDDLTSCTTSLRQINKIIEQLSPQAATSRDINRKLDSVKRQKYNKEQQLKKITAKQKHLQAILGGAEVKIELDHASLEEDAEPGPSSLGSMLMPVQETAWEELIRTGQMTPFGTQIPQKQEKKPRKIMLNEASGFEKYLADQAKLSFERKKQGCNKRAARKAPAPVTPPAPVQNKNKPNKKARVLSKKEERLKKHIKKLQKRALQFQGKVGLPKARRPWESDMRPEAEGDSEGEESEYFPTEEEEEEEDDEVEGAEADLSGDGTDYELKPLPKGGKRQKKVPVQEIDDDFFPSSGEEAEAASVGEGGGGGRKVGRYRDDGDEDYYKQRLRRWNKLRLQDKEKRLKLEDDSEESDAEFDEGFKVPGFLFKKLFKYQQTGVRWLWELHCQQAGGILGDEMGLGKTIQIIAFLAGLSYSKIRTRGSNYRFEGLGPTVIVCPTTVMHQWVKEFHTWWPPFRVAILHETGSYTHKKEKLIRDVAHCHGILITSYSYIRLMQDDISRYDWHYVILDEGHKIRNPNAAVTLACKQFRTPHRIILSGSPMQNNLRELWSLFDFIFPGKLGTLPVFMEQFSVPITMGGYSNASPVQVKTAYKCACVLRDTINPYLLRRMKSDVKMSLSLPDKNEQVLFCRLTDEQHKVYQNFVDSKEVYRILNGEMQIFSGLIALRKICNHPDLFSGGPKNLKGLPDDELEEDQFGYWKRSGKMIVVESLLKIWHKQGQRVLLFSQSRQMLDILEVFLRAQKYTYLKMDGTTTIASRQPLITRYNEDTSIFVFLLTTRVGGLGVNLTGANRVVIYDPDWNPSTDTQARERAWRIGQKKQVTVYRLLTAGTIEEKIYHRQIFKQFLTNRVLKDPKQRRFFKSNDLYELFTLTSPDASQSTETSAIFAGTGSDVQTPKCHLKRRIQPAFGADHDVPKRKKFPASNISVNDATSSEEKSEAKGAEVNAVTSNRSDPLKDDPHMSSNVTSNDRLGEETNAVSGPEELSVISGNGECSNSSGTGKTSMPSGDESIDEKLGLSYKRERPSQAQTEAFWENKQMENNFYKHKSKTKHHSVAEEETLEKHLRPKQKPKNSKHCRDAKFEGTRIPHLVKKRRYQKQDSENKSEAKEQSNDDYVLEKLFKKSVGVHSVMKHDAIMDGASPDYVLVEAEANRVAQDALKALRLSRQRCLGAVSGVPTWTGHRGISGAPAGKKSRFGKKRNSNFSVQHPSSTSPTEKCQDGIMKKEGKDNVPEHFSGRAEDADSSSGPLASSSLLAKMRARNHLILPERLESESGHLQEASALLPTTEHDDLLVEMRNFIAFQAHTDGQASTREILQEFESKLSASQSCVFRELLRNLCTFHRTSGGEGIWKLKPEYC

CACACCGAGTTCATCCCTTATGTGATGGACCCTCCACGAGGGGGCCCTGGAGAATCCCGGTGCCGAGGCTGCAGAATTGGTCGTAGACAGCTCTAGCACCGCTTAAACGCACGTACGCGCTGTCCCCCGCGTTTTAACCGCCAAGGGGATTACTCCCTAGTCTCCAGGCACGTGTCAGATATATACATCCTGT (double strand) [200 bp DNA fragment with CTCF-binding site (Fig. S4B)]
binding result (CSB): binds | binding result (MBP): no binding

— publication PMC4797267, “The CSB chromatin remodeler and CTCF architectural protein cooperate in response to oxidative stress”
